Laboratory results as given in US20110038885A1 (priority 2007, published 2011).

Test: general procedure: Fmoc solid-phase peptide synthesis; Rink Amide MBHA resin (0.58 mmol/g or 0.78 mmol/g); Wang resin for C-terminal acids; DIC/HOBt
Conditions: whole synthesis, analytical HPLC, scale of the general procedure 0.090 mmol

## H-PCKQKWIQC-NH2 (disulfide 2-9; SMILES CC[C@H](C)[C@@H]1NC(=O)[C@H](Cc2c[nH]c3ccccc23)NC(=O)[C@H](CCCCN)NC(=O)[C@H](CCC(N)=O)NC(=O)[C@H](CCCCN)NC(=O)[C@@H](NC(=O)[C@@H]2CCCN2)CSSC[C@@H](C(N)=O)NC(=O)[C@H](CCC(N)=O)NC1=O)
  purity (crude or final not stated): 97.6%

## H-PKCQKWIQC-NH2 (disulfide 3-9; SMILES CC[C@H](C)[C@@H]1NC(=O)[C@H](Cc2c[nH]c3ccccc23)NC(=O)[C@H](CCCCN)NC(=O)[C@H](CCC(N)=O)NC(=O)[C@@H](NC(=O)[C@H](CCCCN)NC(=O)[C@@H]2CCCN2)CSSC[C@@H](C(N)=O)NC(=O)[C@H](CCC(N)=O)NC1=O)
  purity (crude or final not stated): 97.3%

## H-PKQCKWIQC-NH2 (disulfide 4-9; SMILES CC[C@H](C)[C@@H]1NC(=O)[C@H](Cc2c[nH]c3ccccc23)NC(=O)[C@H](CCCCN)NC(=O)[C@@H](NC(=O)[C@H](CCC(N)=O)NC(=O)[C@H](CCCCN)NC(=O)[C@@H]2CCCN2)CSSC[C@@H](C(N)=O)NC(=O)[C@H](CCC(N)=O)NC1=O)
  purity (crude or final not stated): 95.8%

## H-WCIQC-NH2 (disulfide 2-5; SMILES CC[C@H](C)[C@@H]1NC(=O)[C@@H](NC(=O)[C@@H](N)Cc2c[nH]c3ccccc23)CSSC[C@@H](C(N)=O)NC(=O)[C@H](CCC(N)=O)NC1=O)
  purity (crude or final not stated): 92%

## H-[dC]LDPKQKWIQC-NH2 (disulfide 1-11; SMILES CC[C@H](C)[C@@H]1NC(=O)[C@H](Cc2c[nH]c3ccccc23)NC(=O)[C@H](CCCCN)NC(=O)[C@H](CCC(N)=O)NC(=O)[C@H](CCCCN)NC(=O)[C@@H]2CCCN2C(=O)[C@H](CC(=O)O)NC(=O)[C@H](CC(C)C)NC(=O)[C@H](N)CSSC[C@@H](C(N)=O)NC(=O)[C@H](CCC(N)=O)NC1=O)
  purity (crude or final not stated): 95.9%

## H-[dC]LDPKQKWIQC[Dap]-NH2 (disulfide 1-11; SMILES CC[C@H](C)[C@@H]1NC(=O)[C@H](Cc2c[nH]c3ccccc23)NC(=O)[C@H](CCCCN)NC(=O)[C@H](CCC(N)=O)NC(=O)[C@H](CCCCN)NC(=O)[C@@H]2CCCN2C(=O)[C@H](CC(=O)O)NC(=O)[C@H](CC(C)C)NC(=O)[C@H](N)CSSC[C@@H](C(=O)N[C@@H](CN)C(N)=O)NC(=O)[C@H](CCC(N)=O)NC1=O)
  purity (crude or final not stated): 96.6%

## H-[dC]LDPKQKWIQ[dC]-NH2 (disulfide 1-11; SMILES CC[C@H](C)[C@@H]1NC(=O)[C@H](Cc2c[nH]c3ccccc23)NC(=O)[C@H](CCCCN)NC(=O)[C@H](CCC(N)=O)NC(=O)[C@H](CCCCN)NC(=O)[C@@H]2CCCN2C(=O)[C@H](CC(=O)O)NC(=O)[C@H](CC(C)C)NC(=O)[C@H](N)CSSC[C@H](C(N)=O)NC(=O)[C@H](CCC(N)=O)NC1=O)
  purity (crude or final not stated): 94.1%

## H-[dC][dQ][dI][dW][dK][dC]-NH2 (disulfide 1-6; SMILES CC[C@@H](C)[C@H]1NC(=O)[C@@H](CCC(N)=O)NC(=O)[C@H](N)CSSC[C@H](C(N)=O)NC(=O)[C@@H](CCCCN)NC(=O)[C@@H](Cc2c[nH]c3ccccc23)NC1=O)
  purity (crude or final not stated): 99%

## H-[dC][dQ][dI][dW][dK][dQ][dK][dP][dD](X2)[dL][dC]-NH2 (disulfide 1-11; SMILES CCCCCCOC(=O)C[C@H]1NC(=O)[C@H]2CCCN2C(=O)[C@@H](CCCCN)NC(=O)[C@@H](CCC(N)=O)NC(=O)[C@@H](CCCCN)NC(=O)[C@@H](Cc2c[nH]c3ccccc23)NC(=O)[C@@H]([C@H](C)CC)NC(=O)[C@@H](CCC(N)=O)NC(=O)[C@H](N)CSSC[C@H](C(N)=O)NC(=O)[C@@H](CC(C)C)NC1=O)
  purity (crude or final not stated): 99%

## H-[dC][dQ][dI][dW][dK][dQ][dK][dP][dD]K(Octanoyl)[dL][dC]-OH (disulfide 1-12; SMILES CCCCCCCC(=O)NCCCC[C@@H]1NC(=O)[C@@H](CC(=O)O)NC(=O)[C@H]2CCCN2C(=O)[C@@H](CCCCN)NC(=O)[C@@H](CCC(N)=O)NC(=O)[C@@H](CCCCN)NC(=O)[C@@H](Cc2c[nH]c3ccccc23)NC(=O)[C@@H]([C@H](C)CC)NC(=O)[C@@H](CCC(N)=O)NC(=O)[C@H](N)CSSC[C@H](C(=O)O)NC(=O)[C@@H](CC(C)C)NC1=O)
  purity (crude or final not stated): 99%

## H-[dC][dQ][dI][dW][dK][dQ][dK][dP][dD][dL]K(Octanoyl)[dC]-NH2 (disulfide 1-12; SMILES CCCCCCCC(=O)NCCCC[C@@H]1NC(=O)[C@@H](CC(C)C)NC(=O)[C@@H](CC(=O)O)NC(=O)[C@H]2CCCN2C(=O)[C@@H](CCCCN)NC(=O)[C@@H](CCC(N)=O)NC(=O)[C@@H](CCCCN)NC(=O)[C@@H](Cc2c[nH]c3ccccc23)NC(=O)[C@@H]([C@H](C)CC)NC(=O)[C@@H](CCC(N)=O)NC(=O)[C@H](N)CSSC[C@H](C(N)=O)NC1=O)
  purity (crude or final not stated): 99%

## H-[dC][dQ][dI][dW][dK][dQ][dK][dP][dD][dL][dC]DK(Octanoyl)-OH (disulfide 1-11; SMILES CCCCCCCC(=O)NCCCC[C@H](NC(=O)[C@H](CC(=O)O)NC(=O)[C@H]1CSSC[C@@H](N)C(=O)N[C@H](CCC(N)=O)C(=O)N[C@H]([C@H](C)CC)C(=O)N[C@H](Cc2c[nH]c3ccccc23)C(=O)N[C@H](CCCCN)C(=O)N[C@H](CCC(N)=O)C(=O)N[C@H](CCCCN)C(=O)N2CCC[C@@H]2C(=O)N[C@H](CC(=O)O)C(=O)N[C@H](CC(C)C)C(=O)N1)C(=O)O)
  purity (crude or final not stated): 99%

## H-[dC][dQ][dI][dW][dK][dQ][dK][dP][dD][dL][dC]D[Aoc]-OH (disulfide 1-11; SMILES CC[C@@H](C)[C@H]1NC(=O)[C@@H](CCC(N)=O)NC(=O)[C@H](N)CSSC[C@H](C(=O)N[C@@H](CC(=O)O)C(=O)NCCCCCCCC(=O)O)NC(=O)[C@@H](CC(C)C)NC(=O)[C@@H](CC(=O)O)NC(=O)[C@H]2CCCN2C(=O)[C@@H](CCCCN)NC(=O)[C@@H](CCC(N)=O)NC(=O)[C@@H](CCCCN)NC(=O)[C@@H](Cc2c[nH]c3ccccc23)NC1=O)
  purity (crude or final not stated): 99%

## H-[dC][dQ][dI][dW][dK][dQ][dK][dP][dD][dL][dC]E[Aoc]-OH (disulfide 1-11; SMILES CC[C@@H](C)[C@H]1NC(=O)[C@@H](CCC(N)=O)NC(=O)[C@H](N)CSSC[C@H](C(=O)N[C@@H](CCC(=O)O)C(=O)NCCCCCCCC(=O)O)NC(=O)[C@@H](CC(C)C)NC(=O)[C@@H](CC(=O)O)NC(=O)[C@H]2CCCN2C(=O)[C@@H](CCCCN)NC(=O)[C@@H](CCC(N)=O)NC(=O)[C@@H](CCCCN)NC(=O)[C@@H](Cc2c[nH]c3ccccc23)NC1=O)
  purity (crude or final not stated): 99%

## H-[dC][dQ][dI][dW][dK][dQ][dK][dP][dD][dL][dC]IE[Aoc]-OH (disulfide 1-11; SMILES CC[C@@H](C)[C@H]1NC(=O)[C@@H](CCC(N)=O)NC(=O)[C@H](N)CSSC[C@H](C(=O)N[C@H](C(=O)N[C@@H](CCC(=O)O)C(=O)NCCCCCCCC(=O)O)[C@@H](C)CC)NC(=O)[C@@H](CC(C)C)NC(=O)[C@@H](CC(=O)O)NC(=O)[C@H]2CCCN2C(=O)[C@@H](CCCCN)NC(=O)[C@@H](CCC(N)=O)NC(=O)[C@@H](CCCCN)NC(=O)[C@@H](Cc2c[nH]c3ccccc23)NC1=O)
  purity (crude or final not stated): 99%

## H-[dC][dQ][dI][dW][dK][dQ][dK][dP][dD][dL][dC]K(Octanoyl)-OH (disulfide 1-11; SMILES CCCCCCCC(=O)NCCCC[C@H](NC(=O)[C@H]1CSSC[C@@H](N)C(=O)N[C@H](CCC(N)=O)C(=O)N[C@H]([C@H](C)CC)C(=O)N[C@H](Cc2c[nH]c3ccccc23)C(=O)N[C@H](CCCCN)C(=O)N[C@H](CCC(N)=O)C(=O)N[C@H](CCCCN)C(=O)N2CCC[C@@H]2C(=O)N[C@H](CC(=O)O)C(=O)N[C@H](CC(C)C)C(=O)N1)C(=O)O)
  purity (crude or final not stated): 99%

## H-[dC][dQ][dI][dW][dK][dQ][dK][dP][dD][dL][dC][AEEA]K(Octanoyl)-OH (disulfide 1-11; SMILES CCCCCCCC(=O)NCCCC[C@H](NC(=O)COCCOCCNC(=O)[C@H]1CSSC[C@@H](N)C(=O)N[C@H](CCC(N)=O)C(=O)N[C@H]([C@H](C)CC)C(=O)N[C@H](Cc2c[nH]c3ccccc23)C(=O)N[C@H](CCCCN)C(=O)N[C@H](CCC(N)=O)C(=O)N[C@H](CCCCN)C(=O)N2CCC[C@@H]2C(=O)N[C@H](CC(=O)O)C(=O)N[C@H](CC(C)C)C(=O)N1)C(=O)O)
  purity (crude or final not stated): 99%

## H-[dC][dQ][dI][dW][dK][dQ][dK][dP][dD][dL][dC][AEEA][Aoc]-OH (disulfide 1-11; SMILES CC[C@@H](C)[C@H]1NC(=O)[C@@H](CCC(N)=O)NC(=O)[C@H](N)CSSC[C@H](C(=O)NCCOCCOCC(=O)NCCCCCCCC(=O)O)NC(=O)[C@@H](CC(C)C)NC(=O)[C@@H](CC(=O)O)NC(=O)[C@H]2CCCN2C(=O)[C@@H](CCCCN)NC(=O)[C@@H](CCC(N)=O)NC(=O)[C@@H](CCCCN)NC(=O)[C@@H](Cc2c[nH]c3ccccc23)NC1=O)
  purity (crude or final not stated): 94%

## H-[dC][dQ][dI][dW][dK][dQ][dK][dP][dD][dL][dC][Ahx]-OH (disulfide 1-11; SMILES CC[C@@H](C)[C@H]1NC(=O)[C@@H](CCC(N)=O)NC(=O)[C@H](N)CSSC[C@H](C(=O)NCCCCCC(=O)O)NC(=O)[C@@H](CC(C)C)NC(=O)[C@@H](CC(=O)O)NC(=O)[C@H]2CCCN2C(=O)[C@@H](CCCCN)NC(=O)[C@@H](CCC(N)=O)NC(=O)[C@@H](CCCCN)NC(=O)[C@@H](Cc2c[nH]c3ccccc23)NC1=O)
  purity (crude or final not stated): 94%

## H-[dC][dQ][dI][dW][dK][dQ][dK][dP][dD][dL][dC][Aoc]-OH (disulfide 1-11; SMILES CC[C@@H](C)[C@H]1NC(=O)[C@@H](CCC(N)=O)NC(=O)[C@H](N)CSSC[C@H](C(=O)NCCCCCCCC(=O)O)NC(=O)[C@@H](CC(C)C)NC(=O)[C@@H](CC(=O)O)NC(=O)[C@H]2CCCN2C(=O)[C@@H](CCCCN)NC(=O)[C@@H](CCC(N)=O)NC(=O)[C@@H](CCCCN)NC(=O)[C@@H](Cc2c[nH]c3ccccc23)NC1=O)
  purity (crude or final not stated): 99%

## H-[dC][dQ][dI][dW][dK][dQ][dK][dP][dD][dL][dC][dD]K(Octanoyl)-OH (disulfide 1-11; SMILES CCCCCCCC(=O)NCCCC[C@H](NC(=O)[C@@H](CC(=O)O)NC(=O)[C@H]1CSSC[C@@H](N)C(=O)N[C@H](CCC(N)=O)C(=O)N[C@H]([C@H](C)CC)C(=O)N[C@H](Cc2c[nH]c3ccccc23)C(=O)N[C@H](CCCCN)C(=O)N[C@H](CCC(N)=O)C(=O)N[C@H](CCCCN)C(=O)N2CCC[C@@H]2C(=O)N[C@H](CC(=O)O)C(=O)N[C@H](CC(C)C)C(=O)N1)C(=O)O)
  purity (crude or final not stated): 99%

Bridge positions count the residues as written; N and C are the ends. Square brackets hold non-standard residues; d marks the D form. * marks the point of attachment. Octanoyl = CCCCCCCC(=O)*; Dap = NC[C@H](N)C(=O)O; AEEA = NCCOCCOCC(=O)O; Aoc = NCCCCCCCC(=O)O; Ahx = NCCCCCC(=O)O; X2 = CCCCCCO*
